Test results: the supplement of paper PMC10060354, “Discovery of a small molecule ligand of FRS2 that inhibits invasion and tumor growth” (Cellular Oncology, 2022)
Many values rest on one well or one pass, so single values are uncertain.

Protein sequences, listed by entry. Tags and fused reporters are not part of them. Lines headed by an entry give the natural chain unless they say otherwise; changes in a name come on top.
UniProt P78560: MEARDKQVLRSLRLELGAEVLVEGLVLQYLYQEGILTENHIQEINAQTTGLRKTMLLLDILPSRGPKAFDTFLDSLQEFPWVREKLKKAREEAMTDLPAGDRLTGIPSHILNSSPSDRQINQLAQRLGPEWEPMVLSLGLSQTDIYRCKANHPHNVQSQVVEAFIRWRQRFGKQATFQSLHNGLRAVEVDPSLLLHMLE
UniProt O95359: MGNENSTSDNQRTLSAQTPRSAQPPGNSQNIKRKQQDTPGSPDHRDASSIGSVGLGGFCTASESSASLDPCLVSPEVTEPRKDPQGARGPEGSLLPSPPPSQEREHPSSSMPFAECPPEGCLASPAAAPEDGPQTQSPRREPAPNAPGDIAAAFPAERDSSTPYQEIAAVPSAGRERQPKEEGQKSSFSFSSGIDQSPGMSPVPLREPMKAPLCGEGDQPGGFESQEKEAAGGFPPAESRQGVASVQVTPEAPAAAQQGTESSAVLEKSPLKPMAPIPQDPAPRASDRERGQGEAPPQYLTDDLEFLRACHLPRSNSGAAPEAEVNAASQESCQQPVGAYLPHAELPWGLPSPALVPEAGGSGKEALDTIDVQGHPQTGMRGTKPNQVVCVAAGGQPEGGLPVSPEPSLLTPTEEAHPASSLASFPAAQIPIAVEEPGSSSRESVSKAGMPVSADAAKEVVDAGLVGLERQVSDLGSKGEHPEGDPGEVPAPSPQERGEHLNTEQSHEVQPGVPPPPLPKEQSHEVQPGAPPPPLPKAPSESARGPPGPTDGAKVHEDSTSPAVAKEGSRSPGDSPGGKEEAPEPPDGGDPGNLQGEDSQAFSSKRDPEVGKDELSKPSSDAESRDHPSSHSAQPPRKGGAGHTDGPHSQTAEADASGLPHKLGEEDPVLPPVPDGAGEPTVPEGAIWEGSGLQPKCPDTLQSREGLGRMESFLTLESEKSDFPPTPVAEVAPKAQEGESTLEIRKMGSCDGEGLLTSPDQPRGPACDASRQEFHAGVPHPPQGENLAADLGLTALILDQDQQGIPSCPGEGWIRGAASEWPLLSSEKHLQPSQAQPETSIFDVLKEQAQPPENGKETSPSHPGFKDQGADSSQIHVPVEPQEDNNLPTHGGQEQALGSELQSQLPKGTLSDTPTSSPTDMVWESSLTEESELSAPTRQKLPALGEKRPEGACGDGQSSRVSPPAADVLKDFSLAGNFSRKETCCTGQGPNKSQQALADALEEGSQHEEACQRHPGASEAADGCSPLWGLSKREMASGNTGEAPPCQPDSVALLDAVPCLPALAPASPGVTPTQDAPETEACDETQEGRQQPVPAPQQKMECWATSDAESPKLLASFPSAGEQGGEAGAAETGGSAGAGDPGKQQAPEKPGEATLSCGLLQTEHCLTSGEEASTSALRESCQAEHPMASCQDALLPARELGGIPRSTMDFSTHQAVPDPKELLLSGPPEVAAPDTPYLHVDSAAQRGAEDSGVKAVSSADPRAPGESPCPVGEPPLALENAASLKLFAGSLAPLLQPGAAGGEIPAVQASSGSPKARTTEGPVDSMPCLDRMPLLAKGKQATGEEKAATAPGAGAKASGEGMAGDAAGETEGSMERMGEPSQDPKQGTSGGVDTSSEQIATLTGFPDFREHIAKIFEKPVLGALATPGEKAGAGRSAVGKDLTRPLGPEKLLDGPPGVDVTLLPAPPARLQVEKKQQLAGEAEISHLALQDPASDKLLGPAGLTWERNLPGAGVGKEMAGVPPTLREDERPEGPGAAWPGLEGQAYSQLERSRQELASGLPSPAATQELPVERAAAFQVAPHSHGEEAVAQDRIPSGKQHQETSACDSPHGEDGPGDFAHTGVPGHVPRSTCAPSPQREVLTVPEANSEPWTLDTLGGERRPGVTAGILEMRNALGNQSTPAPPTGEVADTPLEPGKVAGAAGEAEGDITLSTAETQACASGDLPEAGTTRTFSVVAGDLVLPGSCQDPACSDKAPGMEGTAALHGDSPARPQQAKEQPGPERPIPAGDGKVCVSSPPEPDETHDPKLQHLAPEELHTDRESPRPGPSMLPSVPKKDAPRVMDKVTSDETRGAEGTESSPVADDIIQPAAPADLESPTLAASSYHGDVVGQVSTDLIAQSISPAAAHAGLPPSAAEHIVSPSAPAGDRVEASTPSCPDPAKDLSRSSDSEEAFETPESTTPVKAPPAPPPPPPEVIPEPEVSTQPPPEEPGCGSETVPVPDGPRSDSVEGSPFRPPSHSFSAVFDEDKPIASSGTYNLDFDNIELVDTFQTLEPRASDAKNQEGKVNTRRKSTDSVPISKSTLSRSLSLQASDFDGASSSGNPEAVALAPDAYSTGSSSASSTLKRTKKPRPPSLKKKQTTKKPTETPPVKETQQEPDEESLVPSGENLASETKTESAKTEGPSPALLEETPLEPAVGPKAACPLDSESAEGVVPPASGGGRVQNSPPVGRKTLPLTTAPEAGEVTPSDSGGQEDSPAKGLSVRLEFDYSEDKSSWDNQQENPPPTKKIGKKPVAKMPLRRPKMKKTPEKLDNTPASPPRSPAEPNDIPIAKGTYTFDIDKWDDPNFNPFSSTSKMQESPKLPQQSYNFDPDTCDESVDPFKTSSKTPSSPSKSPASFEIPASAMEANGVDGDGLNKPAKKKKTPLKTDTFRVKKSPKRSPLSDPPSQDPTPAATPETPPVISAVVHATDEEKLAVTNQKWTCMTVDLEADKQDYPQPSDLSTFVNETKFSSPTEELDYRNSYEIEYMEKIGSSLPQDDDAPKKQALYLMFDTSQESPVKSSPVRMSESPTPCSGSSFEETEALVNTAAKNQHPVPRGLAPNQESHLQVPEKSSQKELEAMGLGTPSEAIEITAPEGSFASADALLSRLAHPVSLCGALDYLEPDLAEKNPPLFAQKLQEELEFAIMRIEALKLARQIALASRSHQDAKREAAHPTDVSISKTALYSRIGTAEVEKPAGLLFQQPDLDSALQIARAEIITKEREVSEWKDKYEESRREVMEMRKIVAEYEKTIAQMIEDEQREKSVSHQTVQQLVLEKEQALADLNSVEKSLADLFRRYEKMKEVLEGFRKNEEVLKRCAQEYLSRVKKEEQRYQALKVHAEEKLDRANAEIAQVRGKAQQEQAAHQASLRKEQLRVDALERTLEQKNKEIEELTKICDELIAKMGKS
UniProt Q15365, whole entry: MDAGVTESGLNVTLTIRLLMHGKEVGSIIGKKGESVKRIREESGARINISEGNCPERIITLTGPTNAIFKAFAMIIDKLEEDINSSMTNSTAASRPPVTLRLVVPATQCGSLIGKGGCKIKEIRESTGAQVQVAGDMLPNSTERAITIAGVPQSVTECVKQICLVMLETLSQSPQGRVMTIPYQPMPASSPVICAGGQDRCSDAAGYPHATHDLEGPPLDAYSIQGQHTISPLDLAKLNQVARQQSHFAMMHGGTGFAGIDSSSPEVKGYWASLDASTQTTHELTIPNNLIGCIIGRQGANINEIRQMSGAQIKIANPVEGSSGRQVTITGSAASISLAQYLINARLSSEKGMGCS
UniProt Q5VSL9: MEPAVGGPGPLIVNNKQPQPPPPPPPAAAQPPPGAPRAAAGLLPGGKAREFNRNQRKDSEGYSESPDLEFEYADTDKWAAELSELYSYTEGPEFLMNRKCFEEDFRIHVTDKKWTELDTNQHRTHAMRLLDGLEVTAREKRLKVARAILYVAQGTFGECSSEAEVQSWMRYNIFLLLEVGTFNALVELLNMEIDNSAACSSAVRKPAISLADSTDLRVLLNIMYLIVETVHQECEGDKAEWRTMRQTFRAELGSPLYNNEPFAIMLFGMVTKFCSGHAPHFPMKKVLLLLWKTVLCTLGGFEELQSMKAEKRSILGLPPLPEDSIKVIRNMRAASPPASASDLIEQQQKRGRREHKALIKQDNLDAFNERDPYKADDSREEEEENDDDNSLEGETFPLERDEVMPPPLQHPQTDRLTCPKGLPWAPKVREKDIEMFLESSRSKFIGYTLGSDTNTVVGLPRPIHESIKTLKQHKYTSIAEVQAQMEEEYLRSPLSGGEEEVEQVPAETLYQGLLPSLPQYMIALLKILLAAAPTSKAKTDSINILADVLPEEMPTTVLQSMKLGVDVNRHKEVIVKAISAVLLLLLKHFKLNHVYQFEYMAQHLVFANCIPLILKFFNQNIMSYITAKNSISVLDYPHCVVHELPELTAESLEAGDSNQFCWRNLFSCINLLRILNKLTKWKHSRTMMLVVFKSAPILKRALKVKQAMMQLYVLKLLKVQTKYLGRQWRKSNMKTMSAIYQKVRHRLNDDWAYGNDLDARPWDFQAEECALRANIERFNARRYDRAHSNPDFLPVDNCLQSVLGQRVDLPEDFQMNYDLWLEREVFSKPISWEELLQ
UniProt Q9NUP1: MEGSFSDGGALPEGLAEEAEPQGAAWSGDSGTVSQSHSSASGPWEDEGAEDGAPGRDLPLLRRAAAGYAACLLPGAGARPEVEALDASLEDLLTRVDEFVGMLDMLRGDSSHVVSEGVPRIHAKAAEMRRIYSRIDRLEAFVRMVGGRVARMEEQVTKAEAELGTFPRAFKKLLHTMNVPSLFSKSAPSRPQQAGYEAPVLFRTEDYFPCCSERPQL
UniProt Q9BV19: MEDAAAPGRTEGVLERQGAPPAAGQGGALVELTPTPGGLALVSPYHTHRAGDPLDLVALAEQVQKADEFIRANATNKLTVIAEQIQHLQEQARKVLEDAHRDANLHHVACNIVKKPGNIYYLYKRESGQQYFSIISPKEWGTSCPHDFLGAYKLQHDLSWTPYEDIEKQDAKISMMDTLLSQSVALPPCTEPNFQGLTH
UniProt O43242, whole entry: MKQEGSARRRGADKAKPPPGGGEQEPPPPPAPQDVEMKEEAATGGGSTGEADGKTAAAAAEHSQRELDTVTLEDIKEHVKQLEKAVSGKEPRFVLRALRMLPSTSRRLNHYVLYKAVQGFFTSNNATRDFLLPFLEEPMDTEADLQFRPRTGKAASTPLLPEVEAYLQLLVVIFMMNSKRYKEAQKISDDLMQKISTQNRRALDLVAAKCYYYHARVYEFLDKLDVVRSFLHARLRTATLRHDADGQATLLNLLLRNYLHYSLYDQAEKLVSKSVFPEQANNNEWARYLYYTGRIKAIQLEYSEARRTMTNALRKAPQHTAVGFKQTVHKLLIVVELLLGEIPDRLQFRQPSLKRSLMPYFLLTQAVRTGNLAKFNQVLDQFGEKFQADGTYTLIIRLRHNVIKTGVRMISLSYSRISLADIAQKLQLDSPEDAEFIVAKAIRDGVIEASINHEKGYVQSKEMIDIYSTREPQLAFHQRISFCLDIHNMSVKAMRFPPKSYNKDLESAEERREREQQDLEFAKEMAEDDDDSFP
UniProt Q96HJ9: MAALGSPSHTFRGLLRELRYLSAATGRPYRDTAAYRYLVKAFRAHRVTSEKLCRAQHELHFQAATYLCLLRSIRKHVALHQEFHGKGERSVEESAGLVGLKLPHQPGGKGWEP
UniProt Q9UJX3, whole entry: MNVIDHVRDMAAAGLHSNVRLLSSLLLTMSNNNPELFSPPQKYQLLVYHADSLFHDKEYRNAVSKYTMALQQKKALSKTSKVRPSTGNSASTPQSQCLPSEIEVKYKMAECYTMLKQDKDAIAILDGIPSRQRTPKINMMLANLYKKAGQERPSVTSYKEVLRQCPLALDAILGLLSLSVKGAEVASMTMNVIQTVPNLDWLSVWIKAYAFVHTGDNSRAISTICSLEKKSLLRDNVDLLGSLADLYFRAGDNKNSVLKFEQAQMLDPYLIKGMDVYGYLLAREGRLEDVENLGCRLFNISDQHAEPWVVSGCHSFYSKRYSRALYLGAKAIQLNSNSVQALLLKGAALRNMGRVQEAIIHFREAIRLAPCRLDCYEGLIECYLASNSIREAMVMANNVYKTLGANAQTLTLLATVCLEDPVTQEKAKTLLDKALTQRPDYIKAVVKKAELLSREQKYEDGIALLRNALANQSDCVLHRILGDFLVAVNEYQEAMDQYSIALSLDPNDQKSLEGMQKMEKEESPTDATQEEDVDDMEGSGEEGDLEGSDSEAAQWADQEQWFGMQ
UniProt O60711: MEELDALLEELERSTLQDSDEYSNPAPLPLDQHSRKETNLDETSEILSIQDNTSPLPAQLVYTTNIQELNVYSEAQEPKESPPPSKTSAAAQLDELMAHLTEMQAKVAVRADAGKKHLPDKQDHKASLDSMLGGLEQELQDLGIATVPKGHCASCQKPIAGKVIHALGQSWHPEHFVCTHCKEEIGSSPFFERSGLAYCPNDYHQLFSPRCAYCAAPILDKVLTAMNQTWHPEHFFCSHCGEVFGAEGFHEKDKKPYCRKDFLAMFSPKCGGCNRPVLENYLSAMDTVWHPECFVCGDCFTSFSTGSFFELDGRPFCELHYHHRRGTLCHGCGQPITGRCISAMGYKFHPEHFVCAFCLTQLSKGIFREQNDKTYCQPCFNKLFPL
UniProt Q8WVC6: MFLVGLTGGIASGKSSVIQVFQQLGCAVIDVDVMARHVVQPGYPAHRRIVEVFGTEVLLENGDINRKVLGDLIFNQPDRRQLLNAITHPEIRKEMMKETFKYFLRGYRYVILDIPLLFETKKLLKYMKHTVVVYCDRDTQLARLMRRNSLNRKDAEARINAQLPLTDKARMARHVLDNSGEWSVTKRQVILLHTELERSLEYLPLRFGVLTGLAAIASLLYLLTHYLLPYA

Compound: [O-][N+](C(C1=C(C(O)=C2)NC(C(C=C3)=CC=C3Cl)C4C1C=CC4)=C2Cl)=O
Assay: melting temperature shift (compound 7 minus DMSO); higher = compound stabilises the protein
Settings: 10 µM
Experimental: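 Thermal proteome profiling (TMT mass spectrometry) in intact DAOY medulloblastoma cells or DAOY lysates treated with 10 µM compound 7 or DMSO, heated at 10 temperatures from 40.5 to 73.8 °C for 3 min. Melting curves were fitted with the Bioconductor TPP package, and the melting point difference between compound and vehicle is reported per protein (single curve per condition).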

[1] = system: DAOY cell lysate, treatment time: 20 min, 4 °C
[2] = system: intact DAOY cells, treatment time: 90 min, 37 °C

PARP12 (UniProt Q9H0J9)
melting temperature shift [1]: -2.26 °C

LSM6 (UniProt P62312)
melting temperature shift [1]: -0.392 °C
melting temperature shift [2]: -1.99 °C

FAF2 (UniProt Q96CS3)
melting temperature shift [1]: 0.931 °C
melting temperature shift [2]: -0.574 °C

SPAST (UniProt Q9UBP0)
melting temperature shift [1]: -0.84 °C
melting temperature shift [2]: -0.95 °C

SPAG1 (UniProt Q07617)
melting temperature shift [1]: 0.431 °C
melting temperature shift [2]: -0.637 °C

UniProt Q9ULD0
melting temperature shift [2]: -0.0448 °C

UniProt P78560
melting temperature shift [1]: 1.16 °C

CDK2AP1 (UniProt O14519)
melting temperature shift [1]: 3.9 °C

DHCR24 (UniProt Q15392)
melting temperature shift [1]: -0.261 °C

TACC2 (UniProt O95359)
melting temperature shift [1]: 2.6 °C

PSMB6 (UniProt P28072)
melting temperature shift [1]: -0.09 °C
melting temperature shift [2]: 1.34 °C

UniProt P50993
melting temperature shift [2]: -0.425 °C

UniProt Q8NFP7
melting temperature shift [2]: 0.95 °C

PCBP1 (UniProt Q15365)
melting temperature shift [1]: -0.579 °C
melting temperature shift [2]: -1.01 °C

UniProt Q8TDW4
melting temperature shift [2]: 1.45 °C

STRIP1 (UniProt Q5VSL9)
melting temperature shift [1]: 0.179 °C
melting temperature shift [2]: 0.502 °C

MED8 (UniProt Q96G25)
melting temperature shift [1]: -1.5 °C

ARHGEF2 (UniProt Q92974)
melting temperature shift [1]: -0.488 °C
melting temperature shift [2]: -0.513 °C

A0AVT1
melting temperature shift [1]: -0.572 °C
melting temperature shift [2]: 0.473 °C

DPAGT1 (UniProt Q9H3H5)
melting temperature shift [2]: 0.00624 °C

POLR2G (UniProt P62487)
melting temperature shift [1]: -0.264 °C
melting temperature shift [2]: 1.84 °C

BLOC1S4 (UniProt Q9NUP1)
melting temperature shift [2]: 1.12 °C

CTNND1 (UniProt O60716)
melting temperature shift [1]: 1.38 °C
melting temperature shift [2]: 0.0115 °C

UniProt Q9H9S5
melting temperature shift [1]: 1.29 °C
melting temperature shift [2]: 1.17 °C

UniProt Q6UY01
melting temperature shift [1]: -0.345 °C
melting temperature shift [2]: 0.157 °C

FTSJ3 (UniProt Q8IY81)
melting temperature shift [1]: 0.59 °C

UTP18 (UniProt Q9Y5J1)
melting temperature shift [1]: 0.798 °C

UniProt Q9BV19
melting temperature shift [1]: 1.55 °C
melting temperature shift [2]: 1.28 °C

AVL9 (UniProt Q8NBF6)
melting temperature shift [1]: -2.04 °C
melting temperature shift [2]: -0.431 °C

NUDCD3 (UniProt Q8IVD9)
melting temperature shift [1]: -0.72 °C
melting temperature shift [2]: 0.191 °C

PSMD3 (UniProt O43242)
melting temperature shift [1]: -0.515 °C
melting temperature shift [2]: -1.32 °C

CHMP3 (UniProt Q9Y3E7)
melting temperature shift [1]: -0.872 °C
melting temperature shift [2]: -0.562 °C

UniProt Q96HJ9
melting temperature shift [2]: -0.166 °C

CLPTM1L (UniProt Q96KA5)
melting temperature shift [1]: 0.293 °C
melting temperature shift [2]: -0.885 °C

ANAPC7 (UniProt Q9UJX3)
melting temperature shift [1]: -0.124 °C
melting temperature shift [2]: 0.721 °C

UQCRC2 (UniProt P22695)
melting temperature shift [1]: 1.27 °C
melting temperature shift [2]: 0.855 °C

UniProt P35226
melting temperature shift [1]: -0.101 °C
melting temperature shift [2]: 1.34 °C

NECAP1 (UniProt Q8NC96)
melting temperature shift [1]: -0.0211 °C
melting temperature shift [2]: -0.293 °C

UniProt O60711
melting temperature shift [1]: -0.721 °C
melting temperature shift [2]: 1.76 °C

UniProt Q86TV6
melting temperature shift [1]: 0.0663 °C

MED24 (UniProt O75448)
melting temperature shift [1]: -1.29 °C
melting temperature shift [2]: -2.37 °C

CYP51A1 (UniProt Q16850)
melting temperature shift [1]: 2.36 °C
melting temperature shift [2]: -0.336 °C

GEMIN2 (UniProt O14893)
melting temperature shift [1]: -1.1 °C
melting temperature shift [2]: 1.14 °C

ACYP1 (UniProt P07311)
melting temperature shift [1]: -0.0323 °C
melting temperature shift [2]: -0.686 °C

SNRPB2 (UniProt P08579)
melting temperature shift [1]: 0.525 °C
melting temperature shift [2]: 0.526 °C

TMEM237 (UniProt Q96Q45)
melting temperature shift [1]: 1.66 °C

ST3GAL4 (UniProt Q11206)
melting temperature shift [2]: -0.616 °C

CYC1 (UniProt P08574)
melting temperature shift [1]: 0.975 °C
melting temperature shift [2]: 0.439 °C

EML1 (UniProt O00423)
melting temperature shift [1]: -0.383 °C
melting temperature shift [2]: -0.667 °C

UniProt Q9BVT8
melting temperature shift [1]: 3.58 °C
melting temperature shift [2]: 0.269 °C

UniProt P45877
melting temperature shift [1]: -0.0929 °C
melting temperature shift [2]: 1.55 °C

CHD8 (UniProt Q9HCK8)
melting temperature shift [1]: -1.32 °C
melting temperature shift [2]: 2.99 °C

UniProt P21108
melting temperature shift [2]: -0.014 °C

DCAKD (UniProt Q8WVC6)
melting temperature shift [2]: -2.81 °C

TTPAL (UniProt Q9BTX7)
melting temperature shift [1]: 0.0607 °C
melting temperature shift [2]: 0.341 °C

ARPC5L (UniProt Q9BPX5)
melting temperature shift [1]: -0.539 °C
melting temperature shift [2]: 1.08 °C

SMAP1 (UniProt Q8IYB5)
melting temperature shift [1]: -0.7 °C
melting temperature shift [2]: -0.0545 °C

PIP4K2C (UniProt Q8TBX8)
melting temperature shift [1]: -0.258 °C
melting temperature shift [2]: -0.791 °C
